Measurements: US12661405B2, “Protected HDAC (histone deacetylase) inhibitors” (LIGHTOX LIMITED, priority 2021, dated 2026)

Tested on: SCC-4 cells
Test: Co-localisation of compounds with organelle co-stains (fluorescence microscopy, Pearson's Coefficient)
Format: cell-based
Details: 1 hour
Method: SCC-4 cells were seeded at 50,000 cells per well on 8-well chamber slides and the following day were treated with 1 pM compound of interest for 1 hour before either fixation with 4% paraformaldehyde (PFA) or a media change to Live Cell Imaging solution. Co-stains (e.g. MitoTracker, Bodipy ER Tracker or LipidSpot 610) were applied for 30 minutes before imaging on a Zeiss LSCM 880.
SCC-4 cells were seeded at 50,000 cells/well on 8-well chamber slides. The following day, cells were treated with 1 μM compound 101 and 1 μM compound 93 for 1 hour. Cells were changed to live cell imaging solution media. Co-stains (MitoTracker, Bodipy ER Tracker, LipidSpot 610 or LysoTracker) were added to cells 30 minutes before imaging. Imaging was carried out using a Zeiss LSCM 880 and image analysis was performed on ImageJ.

[1] = co-stain LipidSpot 610, 1 μM compound
[2] = co-stain LysoTracker, 1 μM compound
[3] = co-stain MitoTracker, 1 μM compound

## COCCOCCOCCOC(=O)/C=C/c1ccc(C#Cc2ccc(N(C)CCCCCNC(=O)CCCCCCC(=O)NOC(C)=O)cc2)s1 [compound 101, 2-[2-(2-Methoxyethoxy)ethoxy]ethyl(2E)-3-[5-(2-{4-[(5-{7-[(acetyloxy)carbamoyl]heptanamido}pentyl)(methyl)amino]phenyl}ethynyl)thiophen-2-yl]prop-2-enoate]
[1]
  Pearson's R Value (above threshold): 0.08
  Pearson's R Value (no threshold): 0.30
[2]
  Pearson's R Value (above threshold): 0.54
  Pearson's R Value (no threshold): 0.64
[3]
  Pearson's R Value (above threshold): 0.30 +/− 0.11
  Pearson's R Value (no threshold): 0.55 +/− 0.04
